In patent US7794995B2, “Purified PKB Ser 473 kinase and uses thereof” (priority 2002, dated 2010):

Test system: PKB Ser473 kinase
Conditions: first of two kinase activities in the partially purified fraction; 0-100 microM tested

Question: `CN[C@@H]1C[C@H]2O[C@@](C)([C@@H]1OC)n1c3ccccc3c3c4c(c5c6ccccc6n2c5c31)C(=O)NC4` [staurosporine] was tested. Which “Staurosporine concentration at which inhibition was observed, acutely sensitive kinase activity” value did it give?
Answer: The value was 1 nM.
